We go through one molecule from patent US20130331317A1.

Chains of the proteins cited; added tags and fusions are not shown. Lines headed by an entry give the natural chain unless they say otherwise; changes in a name come on top.
UniProt P11362: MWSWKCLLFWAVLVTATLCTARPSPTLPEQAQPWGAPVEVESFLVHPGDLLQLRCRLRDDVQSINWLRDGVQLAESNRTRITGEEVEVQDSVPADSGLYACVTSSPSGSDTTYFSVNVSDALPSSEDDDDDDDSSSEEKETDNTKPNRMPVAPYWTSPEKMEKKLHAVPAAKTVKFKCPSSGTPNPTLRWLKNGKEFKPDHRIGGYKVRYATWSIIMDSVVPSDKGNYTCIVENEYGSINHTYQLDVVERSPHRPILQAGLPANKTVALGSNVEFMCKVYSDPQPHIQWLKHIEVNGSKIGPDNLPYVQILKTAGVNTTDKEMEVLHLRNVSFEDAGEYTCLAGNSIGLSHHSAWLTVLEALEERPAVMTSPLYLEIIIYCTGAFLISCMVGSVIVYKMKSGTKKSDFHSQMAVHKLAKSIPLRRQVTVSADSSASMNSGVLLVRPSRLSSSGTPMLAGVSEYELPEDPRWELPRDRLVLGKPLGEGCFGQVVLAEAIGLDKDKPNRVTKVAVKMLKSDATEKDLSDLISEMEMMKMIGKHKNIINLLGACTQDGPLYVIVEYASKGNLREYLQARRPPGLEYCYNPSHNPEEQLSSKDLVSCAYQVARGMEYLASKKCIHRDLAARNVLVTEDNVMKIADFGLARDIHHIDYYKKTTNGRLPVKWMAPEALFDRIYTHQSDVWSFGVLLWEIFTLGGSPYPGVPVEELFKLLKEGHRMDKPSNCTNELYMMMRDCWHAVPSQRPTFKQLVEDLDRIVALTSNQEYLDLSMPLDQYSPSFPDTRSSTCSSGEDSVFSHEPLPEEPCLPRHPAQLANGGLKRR

The target in assay [1] is binary complex of FGFR1c ligand-binding domain with murine βKlotho ectodomain (murine; human) (UniProt P11362). The assay can be described thus: SPR competition; increasing concentrations of competitor mixed with a fixed concentration of βKlotho-FGFR1c complex, passed over an FGF21 chip.
The target is the same in assay [2]. The assay is described as follows: SPR competition; competitor mixed with βKlotho-FGFR1c complex, passed over immobilised FGF21.

Results are given in words; binding and its absence hold for the method and conditions named. Some entries that bind do so weakly or less than the wild type. Tags and fused reporters may be left off the sequences shown.

B1: FGF2^ΔHBScore-FGF21^C-tail chimera (FGF2 M1 to M151 with K128D/R129Q/K134V, fused to FGF21 P168 to S209) (ligand)
chain: MAAGSITTLPALPEDGGSGAFPPGHFKDPKRLYCKNGGFFLRIHPDGRVDGVREKSDPHIKLQLQAEERGVVSIKGVSANRYLAMKEDGRLLASKSVTDECFFFERLESNNYNTYRSRKYTSWYVALDQTGQYVLGSKTGPGQKAILFLPMPGLPPALPEPPGILAPQPPDVGSSDPLSMVGPSQGRSPSYAS
Regarding B1, the binding result in assay [1] and in assay [2] was “binds” each time.
